These are yes or no findings as the source states them, for the method shown. In cells and extracts the contact can be indirect. For part of these data: A result given as binding can be weak or reduced; the word gives no strength. Tags and fused reporters may be left off the sequences shown.
B1: 3×FLAG-tagged Pub3 (enzyme, UniProt O14326 1-786)
chain: MEQGAKRVRFYIVAADGLSKRDLFRQPDPFAILTVDGEQTHTTKVIKKSVNPYWNEGFEVTVKPSSVISIRLFDQKKFKKKDQGFLGLVSFRMREVGSFRSNREVSLTRPLKKSSTTNLSVLGNLVLKVAPSKIRAPAGNHSSTTANRTTSTPTTTTARTTRTTPRPTATTNTSNQSTSNSTRNGTSAATSNGTGTGAGTGASHRSSPVTNRQTNNTSALSNSNAHIMSSFEDQYGRLPPGWERRADSLGRTYYVDHNTRTTTWTRPASSTNPVHNTSSDSQRLNHQNRHLPDDSNPSLMQSDSGNDLPFGWEMRYTDTGRPYFVDHNTRTTTWVDPRNPLVRPNGGSSTVGSLMQPQSLSHLGPLPSGWEMRLTNSARVYFVDHNTKTTTWDDPRLPSALDQDVPQYKCDFRRKLIYFRSQPGMRPLPGQCNVKVRRDHIFEDSYAEIMRYSAHDLKKRLMIRFDGEDGLDYGGLSREFFFLLSHKMFDPIYCLFEYSAVDNYTLQINPHSSINPEHLNYFRFIGRVIGLAIFHRRFLDAFFVVSLYKKLLRKKVSLADMESIDAEFYRSLKWVLENDITGILDLTFSVEEDHFGEVRTVELITNGENIEVTEENKKKYVDLVTEWRVSKRVEQQFNAFYSGFVELVSPDLVNVFDERELELLIGGISDVDVEDWKSHTEYRTYIATDPVIKWFWEIIAGWKNEDRSKLLQFATGTSRIPVNGFRDLQGSDGPRKFTIEKAGTPDQLPVAHTCFNRLDLPDYPSKDTLHEKLSLAVENTVGFGNE
B2: 3×FLAG-tagged Pub2 (enzyme, UniProt Q9UTG2 1-671)
chain: MENIRFEVQLTILHVEGLWKNGLLRSLKPYLLISVDDDQFIKTNVASGTLRLSWGFTQKLTVSPQSIILLQLFDEKQKNETSDGFVGLGAAVVNSFLPFNNPKDDYKTRITLRSPSGSYRGSVVCLFKRSKFLPEELPADKSQICTDIIDDASGCAWETRIDEFGHVYYLKSPQLSVISAISHEKLENLTPKQLKEVFSQFLFNNQSKSSLKINLEYKVIKHLLEHYPLALSVRQQVAVEKGPLPAGWEMRLSEDYHVYFVDHSTKTTTWSDPRDNVVASDSVSENTDSIQQINDEYQRKIAYMYDRPEMAVNDAQLQLKVSRATTFEDAYDIISKLSVSDMKKKLLIRFRNEDGLDYGGVSREFFYILSHAIFNPGYSLFEYATDDNYGLQISPLSSVNPDFRSYFRFVGRVMGLAIYHRRYLDVQFVLPFYKRILQKPLCLEDVKDVDEVYYESLKWIKNNDVDESLCLNFSVEENRFGESVTVDLIPNGRNIAVNNQNKMNYLKALTEHKLVTSTEEQFNALKGGLNELIPDSVLQIFNENELDTLLNGKRDIDVQDWKRFTDYRSYTETDDIVIWFWELLSEWSPEKKAKLLQFATGTSRLPLSGFKDMHGSDGPRKFTIEKVGHISQLPKAHTCFNRLDIPPYNSKEELEQKLTIAIQETAGFGTE

How the values were obtained:
[1] = target: Cw9a (bait of the co-immunoprecipitation in Supplementary Fig. 1h) (Schizosaccharomyces pombe (natural isolate CBS5557)); assay: co-IP
[2] = target: GST-Cw9a(1-104) PY2* (Schizosaccharomyces pombe (natural isolate CBS5557)); assay: pull-down
[3] = target: GST-Cw9a(1-104) (Schizosaccharomyces pombe (natural isolate CBS5557)); assay: pull-down
[4] = target: GST-Cw9a(24-52) (Schizosaccharomyces pombe (natural isolate CBS5557)); assay: pull-down
[5] = target: GST-Cw9a(1-104) PY1*PY3* (Schizosaccharomyces pombe (natural isolate CBS5557)); assay: pull-down
[6] = target: GST-Cw9a(1-104) PY3* (Schizosaccharomyces pombe (natural isolate CBS5557)); assay: pull-down
[7] = target: GST-Cw9a(1-104) PY2*PY3* (Schizosaccharomyces pombe (natural isolate CBS5557)); assay: pull-down
[8] = target: GST-Cw9a(1-104) PY1* (Schizosaccharomyces pombe (natural isolate CBS5557)); assay: pull-down
[9] = target: GST-tagged Cw9a(1-52) (Schizosaccharomyces pombe (natural isolate CBS5557)); assay: pull-down
[10] = target: GST-Cw9a(1-23) (Schizosaccharomyces pombe (natural isolate CBS5557)); assay: pull-down
[11] = target: GST-Cw9a(1-104) 3PY* (Schizosaccharomyces pombe (natural isolate CBS5557)); assay: pull-down
[12] = target: GST-Cw9a(53-104) (Schizosaccharomyces pombe (natural isolate CBS5557)); assay: pull-down
[13] = target: GST-Cw9a(1-104) PY1*PY2* (Schizosaccharomyces pombe (natural isolate CBS5557)); assay: pull-down

Row | Binder | binding [1] | binding [2] | binding [3] | binding [4] | binding [5] | binding [6] | binding [7] | binding [8] | binding [9] | binding [10] | binding [11] | binding [12] | binding [13]
1 | B1 | binds | binds | binds | binds | binds | binds | binds weakly | binds | binds | no binding | no binding | binds weakly | binds weakly
2 | B2 | binds weakly | – | – | – | – | – | – | – | binds weakly | – | – | – | –

From article doi:10.1101/2023.07.15.549172
